Assay results taken from patent publication US20220331267A1, “METHODS AND COMPOSITIONS FOR TREATMENT OF DEMYELINATING DISORDERS” (Rush University Medical Center, priority 2019, published 2022).
For at least one compound, name, drawing or mass did not settle the structure.

Assays:
PLP, MOG, MBP and CNPase = experiment: Real-time and semi-quantitative RT-PCR of myelin genes in OPCs; format: cell-based, mouse; conditions: cultured OPCs
mouse primary OPCs [1] = experiment: Double immunofluorescence (NG2/MBP, A2B5/PLP): differentiation of OPCs to oligodendrocytes; format: cell-based; conditions: 1 μM DBB, 0.5 μM DBP, 0.5 μM MePA, 24 hrs
Method: FIG. 1A-1T. The role of DBB, DBP and MePA in the differentiation of OPC into oligodendrocytes and myelination. […] Briefly, mouse primary OPCs were treated with different concentrations of molecules for 1 hr, lysed and measured for DNA probe binding activity of PPARβ. […] Benzene was included as negative control. **p<0.01 vs. control for PLP, MOG, MBP, and CNPase. Results are mean±SD of three independent experiments. (FIG. 1G) Immunoblot followed by (FIG. 1H) relative densitometric analyses of PLP and MBP in mouse primary OPCs treated with increasing concentrations of DBB for 18 hrs. Band intensity was measured with image J software and then normalized with respective actin band. *p<0.05 (=0.041) vs. PLP control and *p<0.05 (=0.026) vs. MBP control. […] (N) Mean fluorescence intensity (MFI) of MBP was measured from total 15 cells per group with three cells from 5 different images per group. […] (FIG. 1Q) Mean fluorescence intensity (MFI) of MBP was measured from total 15 cells per group with three cells from 5 different images per group. […] (FIG. 1T) Numbers of MBP-ir cells of different treatment groups were counted per sq.mm of nanofiber matrix and presented as a histogram. […]
DBB, DBP and MePA stimulate the differentiation of OPC to oligodendrocytes and promote myelination. […] After that, cells were lysed and assessed for PPRE-luciferase activity. […]

mouse primary OPCs [2] = experiment: Myelination of OPCs on polycaprolactone nanofiber matrix (MBP staining); format: cell-based; conditions: 1 μM DBB, 0.5 μM DBP, 0.5 μM MePA; for myelin formation on nanofibers: 24 hrs
Method: FIG. 1A-1T. The role of DBB, DBP and MePA in the differentiation of OPC into oligodendrocytes and myelination. […] Briefly, mouse primary OPCs were treated with different concentrations of molecules for 1 hr, lysed and measured for DNA probe binding activity of PPARβ. […] Benzene was included as negative control. **p<0.01 vs. control for PLP, MOG, MBP, and CNPase. Results are mean±SD of three independent experiments. (FIG. 1G) Immunoblot followed by (FIG. 1H) relative densitometric analyses of PLP and MBP in mouse primary OPCs treated with increasing concentrations of DBB for 18 hrs. Band intensity was measured with image J software and then normalized with respective actin band. *p<0.05 (=0.041) vs. PLP control and *p<0.05 (=0.026) vs. MBP control. […] (FIG. 1K) Immunoblot and (FIG. 1L) relative densitometric analyses for PLP and MOG in OPCs treated with MePA for 18 hrs. *p<0.05 vs. control PLP (p=0.039) and **p<0.01 vs control MOG (p=0.0038). […] (N) Mean fluorescence intensity (MFI) of MBP was measured from total 15 cells per group with three cells from 5 different images per group. One way ANOVA was performed to test the significance of mean, which is F3,56=39.45 (>Fc=4.80), **p<0.001 (=0.000378). (FIG. 1O) A Pearson correlation analyses of MBP and NG2 resulted negative correlation with r=−0.4023 and p<0.001. […] (FIG. 1Q) Mean fluorescence intensity (MFI) of MBP was measured from total 15 cells per group with three cells from 5 different images per group. One way ANOVA was performed to test the significance of mean, which is F3,56=69.40(>Fc=4.80), **p<0.001 (=0.000378). (FIG. 1R) A Pearson correlation analyses of PLP and A2B5 resulted negative correlation with r=−0.4693 and p<0.001. […] (FIG. 1T) Numbers of MBP-ir cells of different treatment groups were counted per sq.mm of nanofiber matrix and presented as a histogram. Five independent images per group were included for counting.
Next, we wanted to explore if all these endogenous regulators of PPARβ could promote myelination. To test that possibility, OPCs were plated on a randomly aligned polycaprolactone (PCL) nanofiber matrix for 48 hrs. […] We also quantified number of MBP-ir cells per sq.mm of nanofiber matrix (FIG. 1T) with clear and round cell bodies as indicated with blue arrowheads.
The essential role of PPARβ in DBB-, DBP- and MePa-mediated differentiation of OPCs to oligodendrocytes and myelination. Small molecules often bind to non-specific protein targets and therefore display off-target effects in a biological system. […] To nullify that possibility, we assessed the effect of these compounds on PPRE-luciferase activity in Pparb-null OPCs, reconstructed with either empty vector (FIG. 2A) or pparb gene (FIG. 2B). […] After that, PPRE-luciferase activity was assessed. […]

For `CC(C)(C)c1ccc(O)c(C(C)(C)C)c1` [DBP, 2,4-Di-tertbutyl phenol], the “expression of myelin genes (PLP, MOG, MBP, CNPase mRNA)” value (PLP, MOG, MBP and CNPase) was “upregulated the expression of myelin genes”, the “differentiation of OPCs into oligodendrocytes” value (mouse primary OPCs [1]) was “stimulate the differentiation of OPCs into oligodendrocytes” and the “MBP-ir cell bodies per sq.mm of nanofiber matrix (maturation of oligodendrocytes)” value (mouse primary OPCs [2]) was “stimulated the maturation of oligodendrocytes”. The “myelin formation on nanofibers” value (mouse primary OPCs [2]) was “promote myelin formation”.

For `CC(C)(C)c1cccc(C(C)(C)C)c1` [DBB, 1,3-Di-tertbutyl benzene], the “expression of myelin genes (PLP, MOG, MBP, CNPase mRNA)” value (PLP, MOG, MBP and CNPase) was “upregulated the expression of myelin genes”, the “differentiation of OPCs into oligodendrocytes” value (mouse primary OPCs [1]) was “stimulate the differentiation of OPCs into oligodendrocytes” and the “MBP-ir cell bodies per sq.mm of nanofiber matrix (maturation of oligodendrocytes)” value (mouse primary OPCs [2]) was “stimulated the maturation of oligodendrocytes”. The “myelin formation on nanofibers” value (mouse primary OPCs [2]) was “promote myelin formation”.
